Experiment [1] concerns the target Arabidopsis thaliana alkaline α-galactosidase AtAkαGal3, wild type (Arabidopsis thaliana) (UniProt Q8RX87). As to the kind of experiment: SEC; S200 column equilibrated with 20 mM Tris-HCl pH 8.2, 1 mM DTT, 1 mM galactose; elution at 80-100 kDa against ~82 kDa on SDS-PAGE; both purified. In general terms: SEC sorts molecules by how far they enter the pores of the column.

The target of experiment [2] is AtAkαGal3 D383A mutant (Arabidopsis thaliana) (UniProt Q8RX87). Described as above.

These are yes or no findings as the source states them, for the method shown.

B1: Arabidopsis thaliana alkaline α-galactosidase AtAkαGal3, wild type (enzyme, UniProt Q8RX87 1-749)
chain: MTIKPAVRISDGNLIIKNRTILTGVPDNVITTSASEAGPVEGVFVGAVFNKEESKHIVPIGTLRNSRFMSCFRFKLWWMAQRMGEMGRDIPYETQFLLVESNDGSHLESDGANGVECNQKVYTVFLPLIEGSFRSCLQGNVNDEVELCLESGDVDTKRSSFTHSLYIHAGTDPFQTITDAIRTVKLHLNSFRQRHEKKLPGIVDYFGWCTWDAFYQEVTQEGVEAGLKSLAAGGTPPKFVIIDDGWQSVERDATVEAGDEKKESPIFRLTGIKENEKFKKKDDPNVGIKNIVKIAKEKHGLKYVYVWHAITGYWGGVRPGEEYGSVMKYPNMSKGVVENDPTWKTDVMTLQGLGLVSPKKVYKFYNELHSYLADAGVDGVKVDVQCVLETLGGGLGGRVELTRQFHQALDSSVAKNFPDNGCIACMSHNTDALYCSKQAAVIRASDDFYPRDPVSHTIHIASVAYNSVFLGEFMQPDWDMFHSVHPAAEYHASARAISGGPLYVSDSPGKHNFELLRKLVLPDGSILRARLPGRPTRDCLFADPARDGVSLLKIWNMNKYTGVLGVYNCQGAAWSSTERKNIFHQTKTDSLTGSIRGRDVHSISEASTDPTTWNGDCAVYSQSRGELIVMPYNVSLPVSLKIREHEIFTVSPISHLVDGVSFAPIGLVNMYNSGGAIEGLRYEAEKMKVVMEVKGCGKFGSYSSVKPKRCVVESNEIAFEYDSSSGLVTFELDKMPIENKRFHLIQVEL
Consider B1, for which, in experiment [1], the binding entry is given as “no binding”.

B2: AtAkαGal3 D383A mutant (enzyme, UniProt Q8RX87 1-749)
chain: MTIKPAVRISDGNLIIKNRTILTGVPDNVITTSASEAGPVEGVFVGAVFNKEESKHIVPIGTLRNSRFMSCFRFKLWWMAQRMGEMGRDIPYETQFLLVESNDGSHLESDGANGVECNQKVYTVFLPLIEGSFRSCLQGNVNDEVELCLESGDVDTKRSSFTHSLYIHAGTDPFQTITDAIRTVKLHLNSFRQRHEKKLPGIVDYFGWCTWDAFYQEVTQEGVEAGLKSLAAGGTPPKFVIIDDGWQSVERDATVEAGDEKKESPIFRLTGIKENEKFKKKDDPNVGIKNIVKIAKEKHGLKYVYVWHAITGYWGGVRPGEEYGSVMKYPNMSKGVVENDPTWKTDVMTLQGLGLVSPKKVYKFYNELHSYLADAGVDGVKVAVQCVLETLGGGLGGRVELTRQFHQALDSSVAKNFPDNGCIACMSHNTDALYCSKQAAVIRASDDFYPRDPVSHTIHIASVAYNSVFLGEFMQPDWDMFHSVHPAAEYHASARAISGGPLYVSDSPGKHNFELLRKLVLPDGSILRARLPGRPTRDCLFADPARDGVSLLKIWNMNKYTGVLGVYNCQGAAWSSTERKNIFHQTKTDSLTGSIRGRDVHSISEASTDPTTWNGDCAVYSQSRGELIVMPYNVSLPVSLKIREHEIFTVSPISHLVDGVSFAPIGLVNMYNSGGAIEGLRYEAEKMKVVMEVKGCGKFGSYSSVKPKRCVVESNEIAFEYDSSSGLVTFELDKMPIENKRFHLIQVEL
With B2, the binding entry in experiment [2] was “no binding”.

The record behind these values is publication PMC9912918.
